Data from paper doi:10.1101/2021.04.08.439049.
No constants are given. Whether binding was seen depends on the method and setting. For some of these results: Binding seen in cells or lysates may run through a third protein. Some results given as binding are weak or reduced against the parent protein; the word gives no strength. Tags and fused reporters may be left off the sequences shown.

Amino acid sequences for entries named in this document (tags omitted).
UniProt P49841: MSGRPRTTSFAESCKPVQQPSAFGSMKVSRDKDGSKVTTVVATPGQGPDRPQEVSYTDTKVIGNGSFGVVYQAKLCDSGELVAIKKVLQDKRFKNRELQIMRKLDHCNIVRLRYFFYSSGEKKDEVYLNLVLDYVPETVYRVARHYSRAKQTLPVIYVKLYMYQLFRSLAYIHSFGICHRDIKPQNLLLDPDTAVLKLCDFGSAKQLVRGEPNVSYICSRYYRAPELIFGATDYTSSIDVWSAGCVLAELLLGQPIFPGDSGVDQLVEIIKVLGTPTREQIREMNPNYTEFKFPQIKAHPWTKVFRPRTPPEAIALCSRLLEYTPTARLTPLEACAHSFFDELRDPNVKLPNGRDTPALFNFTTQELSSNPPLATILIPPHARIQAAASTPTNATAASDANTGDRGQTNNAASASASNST
UniProt P10644: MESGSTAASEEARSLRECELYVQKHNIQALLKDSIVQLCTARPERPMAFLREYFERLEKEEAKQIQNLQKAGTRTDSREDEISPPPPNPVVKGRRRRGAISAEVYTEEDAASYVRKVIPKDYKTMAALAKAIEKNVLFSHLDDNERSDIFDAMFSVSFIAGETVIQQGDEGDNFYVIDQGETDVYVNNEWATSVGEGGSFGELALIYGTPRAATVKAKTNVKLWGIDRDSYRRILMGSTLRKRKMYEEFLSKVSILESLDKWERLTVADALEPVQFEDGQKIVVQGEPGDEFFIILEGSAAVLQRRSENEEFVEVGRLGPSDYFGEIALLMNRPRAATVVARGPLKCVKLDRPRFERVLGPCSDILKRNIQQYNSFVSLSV

Columns and labels:
[1] = molecular target: GST-GSK3b (Abcam) (UniProt P49841); test: ELISA
[2] = molecular target: His-PRKAR1a (Sino Biological) (UniProt P10644); test: ELISA
[3] = molecular target: myc-GSK3β wild type in HEK293 cells (human) (UniProt P49841); test: co-IP
[4] = molecular target: myc-tagged PRKAR1a in HEK293 cells (human) (UniProt P10644); test: co-IP

Row | binding [1] | binding [2] | binding [3] | binding [4] | Binder
1 | binds | binds | – | – | Myc-HK2 protein (OriGene) (enzyme, UniProt P52789 1-917) MIASHLLAYFFTELNHDQVQKVDQYLYHMRLSDETLLEISKRFRKEMEKGLGATTHPTAAVKMLPTFVRSTPDGTEHGEFLALDLGGTNFRVLWVKVTDNGLQKVEMENQIYAIPEDIMRGSGTQLFDHIAECLANFMDKLQIKDKKLPLGFTFSFPCHQTKLDESFLVSWTKGFKSSGVEGRDVVALIRKAIQRRGDFDIDIVAVVNDTVGTMMTCGYDDHNCEIGLIVGTGSNACYMEEMRHIDMVEGDEGRMCINMEWGAFGDDGSLNDIRTEFDQEIDMGSLNPGKQLFEKMISGMYMGELVRLILVKMAKEELLFGGKLSPELLNTGRFETKDISDIEGEKDGIRKAREVLMRLGLDPTQEDCVATHRICQIVSTRSASLCAATLAAVLQRIKENKGEERLRSTIGVDGSVYKKHPHFAKRLHKTVRRLVPGCDVRFLRSEDGSGKGAAMVTAVAYRLADQHRARQKTLEHLQLSHDQLLEVKRRMKVEMERGLSKETHASAPVKMLPTYVCATPDGTEKGDFLALDLGGTNFRVLLVRVRNGKWGGVEMHNKIYAIPQEVMHGTGDELFDHIVQCIADFLEYMGMKGVSLPLGFTFSFPCQQNSLDESILLKWTKGFKASGCEGEDVVTLLKEAIHRREEFDLDVVAVVNDTVGTMMTCGFEDPHCEVGLIVGTGSNACYMEEMRNVELVEGEEGRMCVNMEWGAFGDNGCLDDFRTEFDVAVDELSLNPGKQRFEKMISGMYLGEIVRNILIDFTKRGLLFRGRISERLKTRGIFETKFLSQIESDCLALLQVRAILQHLGLESTCDDSIIVKEVCTVVARRAAQLCGAGMAAVVDRIRENRGLDALKVTVGVDGTLYKLHPHFAKVMHETVKDLAPKCDVSFLQSEDGSGKGAALITAVACRIREAGQR
2 | – | – | binds | binds | HA-tagged HK2 (HK2-HA), wild type, in HEK293 cells (enzyme, UniProt P27881 1-917) MIASHMIACLFTELNQNQVQKVDQFLYHMRLSDETLLEISRRFRKEMEKGLGATTHPTAAVKMLPTFVRSTPDGTEHGEFLALDLGGTNFRVLRVRVTDNGLQRVEMENQIYAIPEDIMRGSGTQLFDHIAECLANFMDKLQIKEKKLPLGFTFSFPCHQTKLDESFLVSWTKGFKSSGVEGRDVVDLIRKAIQRRGDFDIDIVAVVNDTVGTMMTCGYDDQNCEIGLIVGTGSNACYMEEMRHIDMVEGDEGRMCINMEWGAFGDDGTLNDIRTEFDREIDMGSLNPGKQLFEKMISGMYMGELVRLILVKMAKAELLFQGKLSPELLTTGSFETKDVSDIEEDKDGIEKAYQILMRLGLNPLQEDCVATHRICQIVSTRSASLCAATLAAVLWRIKENKGEERLRSTIGVDGSVYKKHPHFAKRLHKAVRRLVPDCDVRFLRSEDGSGKGAAMVTAVAYRLADQHRARQKTLESLKLSHEQLLEVKRRMKVEMEQGLSKETHAVAPVKMLPTYVCATPDGTEKGDFLALDLGGTNFRVLLVRVRNGKRRGVEMHNKIYSIPQEVMHGTGEELFDHIVQCIADFLEYMGMKGVSLPLGFTFSFPCQQNSLDQSILLKWTKGFKASGCEGEDVVTLLKEAIHRREEFDLDVVAVVNDTVGTMMTCGYEDPHCEVGLIVGTGSNACYMEEMRNVELVDGEEGRMCVNMEWGAFGDNGCLDDLRTVFDVAVDELSLNPGKQRFEKMISGMYLGEIVRNILIDFTKRGLLFRGRISERLKTRGIFETKFLSQIESDCLALLQVRAILRHLGLESTCDDSIIVKEVCTVVARRAAQLCGAGMAAVVDKIRENRGLDNLKVTVGVDGTLYKLHPHFAKVMHETVRDLAPKCDVSFLESEDGSGKGAALITAVACRIREAGQR
